Structures can show the parent of a compound that is named as a salt. Some of these results come from one statement about several compounds together.
Assay: Stability test (purity) by liquid chromatography after storage
Type: physicochemical
Details: any of the conditions: 40° C. open, 60° C. open, light irradiation 1200000 Lux·hr, 1 month
Method: The measurement by liquid chromatography was conducted according to the following test conditions. • Equipment: Agilent Technologies, Inc., 1200 Series Binary LC System • Mobile phase A: 10 mM Na2HPO4 aqueous solution (pH 6.5) • Mobile phase B: Acetonitrile • Gradient: described in Table 1 • Column: Ascentis Express C18, 150 mm×4.6 mm i.d., 2.7 μm • Measurement wavelength: 210 nm
The crystals of the hydrochloride salt, the mesylate salt, the potassium salt, the sodium salt, and the free form of Compound 1 obtained in Example 1 and Comparative Examples 1 to 4 were each left under conditions at 40° C. (open system), at 60° C. (open system), and under light irradiation (1200000 Lux·hr) for 1 month. Subsequent measurement of purity by liquid chromatography indicated the purity change between before and after the test was 0.2% or less in any of the conditions.

Compound	purity change between before and after the test
Cc1cc(Nc2nc(CC3(C(=O)O)CCN(C(=O)c4cccc(Cl)c4Cl)CC3)ccc2F)n[nH]1 [Mesylate salt, 1-(2,3-dichlorobenzoyl)-4-((5-fluoro-6-(5-methyl-1H-pyrazol-3-ylamino)pyridin-2-yl)methyl)piperidine-4-carboxylic acid]	≤ 0.2%
Cc1cc(Nc2nc(CC3(C(=O)O)CCN(C(=O)c4cccc(Cl)c4Cl)CC3)ccc2F)n[nH]1 [Potassium salt, 1-(2,3-dichlorobenzoyl)-4-((5-fluoro-6-(5-methyl-1H-pyrazol-3-ylamino)pyridin-2-yl)methyl)piperidine-4-carboxylic acid]	≤ 0.2%
Cc1cc(Nc2nc(CC3(C(=O)O)CCN(C(=O)c4cccc(Cl)c4Cl)CC3)ccc2F)n[nH]1 [Sodium salt, 1-(2,3-dichlorobenzoyl)-4-((5-fluoro-6-(5-methyl-1H-pyrazol-3-ylamino)pyridin-2-yl)methyl)piperidine-4-carboxylic acid]	≤ 0.2%
Cc1cc(Nc2nc(CC3(C(=O)O)CCN(C(=O)c4cccc(Cl)c4Cl)CC3)ccc2F)n[nH]1 [Hydrochloride salt, 1-(2,3-dichlorobenzoyl)-4-((5-fluoro-6-(5-methyl-1H-pyrazol-3-ylamino)pyridin-2-yl)methyl)piperidine-4-carboxylic acid]	≤ 0.2%
Cc1cc(Nc2nc(CC3(C(=O)O)CCN(C(=O)c4cccc(Cl)c4Cl)CC3)ccc2F)n[nH]1 [Free form, 1-(2,3-dichlorobenzoyl)-4-((5-fluoro-6-(5-methyl-1H-pyrazol-3-ylamino)pyridin-2-yl)methyl)piperidine-4-carboxylic acid]	≤ 0.2%

From patent US11028069B2, “Salt of substituted piperidine compound” (TAIHO PHARMACEUTICAL CO., LTD., priority 2016, dated 2021)
